Assay results from the supplement of paper PMC11546906.
Structures can show the parent of a compound that is named as a salt. Some of the results follow. Repeats in this data set agree poorly, so a single value says little.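 A screen tested FDA-approved drugs combined with one-eighth-MIC colistin against a clinical mcr-1-positive, multidrug-resistant E. coli isolate, measuring OD600 at 24 h. Controls were untreated bacteria (growth) and broth alone (blank). An OD600 under 0.2 marked a combination as active.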

The compounds below were run on Escherichia coli 42 (mcr-1-positive clinical isolate) (assay: OD600 after 24 h growth with compound plus colistin (absorbance units (OD600)); higher = more bacterial growth (less inhibition)). Settings: first compound 25 µM; colistin concentration 0.5 ug/mL; incubation time 24 h; 37 °C.

OD600, inactive:
O=c1n(CCCN2CCN(c3cccc(Cl)c3)CC2)nc2ccccn12 [Trazodone hydrochloride] + CCC(C)CCCC(=O)N[C@@H](CCN)C(=O)N[C@H](C(=O)N[C@@H](CCN)C(=O)N[C@H]1CCNC(=O)[C@H]([C@@H](C)O)NC(=O)[C@H](CCN)NC(=O)[C@H](CCN)NC(=O)[C@H](CC(C)C)NC(=O)[C@@H](CC(C)C)NC(=O)[C@H](CCN)NC1=O)[C@@H](C)O [colistin] 1.1, c1ccc2c(CC3=NCCN3)cccc2c1 [Naphazoline hydrochloride] + CCC(C)CCCC(=O)N[C@@H](CCN)C(=O)N[C@H](C(=O)N[C@@H](CCN)C(=O)N[C@H]1CCNC(=O)[C@H]([C@@H](C)O)NC(=O)[C@H](CCN)NC(=O)[C@H](CCN)NC(=O)[C@H](CC(C)C)NC(=O)[C@@H](CC(C)C)NC(=O)[C@H](CCN)NC1=O)[C@@H](C)O [colistin] 1.1, CC(O)(P(=O)(O)O)P(=O)(O)O [Sodium etidronate] + CCC(C)CCCC(=O)N[C@@H](CCN)C(=O)N[C@H](C(=O)N[C@@H](CCN)C(=O)N[C@H]1CCNC(=O)[C@H]([C@@H](C)O)NC(=O)[C@H](CCN)NC(=O)[C@H](CCN)NC(=O)[C@H](CC(C)C)NC(=O)[C@@H](CC(C)C)NC(=O)[C@H](CCN)NC1=O)[C@@H](C)O [colistin] 1.08, O=C(O)CCCC[C@@H]1SC[C@@H]2NC(=O)N[C@@H]21 [Biotin] + CCC(C)CCCC(=O)N[C@@H](CCN)C(=O)N[C@H](C(=O)N[C@@H](CCN)C(=O)N[C@H]1CCNC(=O)[C@H]([C@@H](C)O)NC(=O)[C@H](CCN)NC(=O)[C@H](CCN)NC(=O)[C@H](CC(C)C)NC(=O)[C@@H](CC(C)C)NC(=O)[C@H](CCN)NC1=O)[C@@H](C)O [colistin] 0.585, CN(C)CCC=C1c2ccccc2COc2ccccc21 [Doxepin hydrochloride] + CCC(C)CCCC(=O)N[C@@H](CCN)C(=O)N[C@H](C(=O)N[C@@H](CCN)C(=O)N[C@H]1CCNC(=O)[C@H]([C@@H](C)O)NC(=O)[C@H](CCN)NC(=O)[C@H](CCN)NC(=O)[C@H](CC(C)C)NC(=O)[C@@H](CC(C)C)NC(=O)[C@H](CCN)NC1=O)[C@@H](C)O [colistin] 0.9
